## Primary screen of a compound library

Measurements from “University of Dundee, Small-Polar-MMV Screening Library” (2021), ChEMBL document CHEMBL3988442.

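Assay of Toxoplasma gondii numbers, read through their beta-galactosidase reporter with a colour substrate. Concentration: 50 µM. The record gives no direction; the compounds picked for IC50 retests had high values, so higher reads as fewer parasites. Size under these conditions: about 18,000 compounds, about 170 of them at 50% or above in at least one test.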

Results are given as percent effect. How 0% and 100% were set is not recorded. Most values in the screen are low, and negative values occur. This is an unselected part of the compounds tested.

| SMILES | Percent Effect |
|---|---|
| `COCCNC(=O)NC(C)CCc1ccc(O)cc1` (stereo unspecified) | -3.348 |
| `CS(=O)(=O)CCn1ccnc1-c1ccc(Cl)s1` | -2.415 |
| `Cc1cc(N2CCOC(CN(C)CC(N)=O)C2)ccn1` (stereo unspecified) | 2.869 |
| `NCCC1CSc2ccccc2O1` (stereo unspecified) | 65.01 |
| `O=C(CCC(=O)c1ccccc1)NCc1cccnc1` | -32.47 |
| `CN(C)CCCN(C)c1cc(C2CC(N)C2)nc(N)n1` (stereo unspecified) | 6.621 |
| `NCCc1nc(-c2ccc(F)cc2)c[nH]1` | 27.96 |
| `COCCCNC(=O)N1CCCN(CCCOC)CC1` | 6.014 |
| `Cn1cccc(NC(=O)c2ccc(Br)cc2F)c1=O` | -3.184 |
| `Cc1noc(C)c1CC(=O)N(C)Cc1cccnc1` | 9.152 |
| `CCc1nccn1CCNC(=O)Cc1nonc1C` | 3.499 |
| `CN1CCN(C(=O)C2CCCNC2)CC1` (stereo unspecified) | -12.09 |
| `NC1CCn2ccnc21` (stereo unspecified) | 7.618 |
| `CS(=O)(=O)c1cccc(NC(=O)c2cnccn2)c1` | 15.42 |
| `COC(=O)CN1CCCC(C(=O)c2ccc(F)cc2)C1` (stereo unspecified) | -0.3763 |
| `Cn1cc(S(=O)(=O)NCC2(N)CCCCC2)cn1` | 6.156 |
| `Cc1ccc2[nH]cc(CCN)c2c1` | -34.74 |
| `NC[C@@H]1CC(=O)N(C2CC2)[C@H]1c1ccncc1` | -2.453 |
| `CNC1CCCc2cccnc21` (stereo unspecified) | 7.652 |
| `Cc1[nH]cnc1CN1CCC(Oc2ncccn2)CC1` | 10.62 |
| `Cc1nnc(CN(C)C(=O)CN(C)C2CCCC2)o1` | 18.79 |
| `CC(C)N1CCC(c2nc(-c3cccnn3)no2)C1` (stereo unspecified) | -13.79 |
| `NS(=O)(=O)N1CCN(CC=Cc2ccc(F)cc2)CC1` | 12.38 |
| `CCCC(N)CNS(=O)(=O)c1cc(F)cc(F)c1` (stereo unspecified) | 1.137 |
| `O=C(Nc1cccc(F)c1)C1CCCN1` (stereo unspecified) | 7.876 |
| `Cc1cc(CN)on1` | -39.97 |
| `CC(C)(N)CN1CCCOCC1` | 12.8 |
| `CC(C)(CNC(=O)CCS(C)(=O)=O)Cc1ccccc1` | 19.63 |
| `O=C(N[C@H](CO)c1ccccc1)c1cccnc1` | 11.5 |
| `COCc1ccc(SCC(=O)N(C)C)cc1` | -2.147 |
| `NC1CC(=O)N(c2ccccc2Cl)C1` (stereo unspecified) | 38.48 |
| `CC(=O)C1CCN(C)CC1` | 12.13 |
| `O=C(c1cccnc1)N1CCCC1c1ccc(O)cc1` (stereo unspecified) | -1.679 |
| `CC(C)NC(C)c1nnc2ccccn12` (stereo unspecified) | -2.194 |
| `CCc1cc(C(=O)N[C@H]2CC[C@@H](N)C2)cc(=O)[nH]1` | 18.58 |
| `COCC1CN(C(=O)c2cnc(C(C)(C)C)s2)CCO1` (stereo unspecified) | 23.85 |
| `OC1CCN(C2CNC2)C1` (stereo unspecified) | -11.87 |
| `c1cncc(CN2CCC(N3CCCC3)CC2)c1` | 13.31 |
| `CN1CCC(NC(=O)COc2ccccc2F)CC1` | 8.956 |
| `CN1CCCN(C(=O)COc2ccc(F)cc2Cl)CC1` | -3.27 |
| `COC1CCCN(C(=O)c2ccccc2C(C)=O)C1` (stereo unspecified) | -2.838 |
| `Cc1ccc(C(=O)NCC(c2ccco2)N(C)C)o1` (stereo unspecified) | -2.379 |
| `CN(C)c1noc(CNS(=O)(=O)c2ccccc2)n1` | -24.93 |
| `CCC(N)(CC)CNS(=O)(=O)c1cn(C)cn1` | 1.651 |
| `CC(C)C(=O)N1CCC2(CCNC(=O)CC2)CC1` | -18.47 |
| `CSC(C)(C)CNC(=O)Nc1cc(C)on1` | -5.928 |
| `COCCCN(Cc1[nH]cnc1C)C1CCN(C)CC1` | -15.64 |
| `COC(=O)N1CCN(c2ncccn2)CC1` | 5.573 |

The last 4 entries again:

| SMILES | Percent Effect |
|---|---|
| `CC(C)C(=O)N1CCC2(CCNC(=O)CC2)CC1` | -18.47 |
| `CSC(C)(C)CNC(=O)Nc1cc(C)on1` | -5.928 |
| `COCCCN(Cc1[nH]cnc1C)C1CCN(C)CC1` | -15.64 |
| `COC(=O)N1CCN(c2ncccn2)CC1` | 5.573 |